# Laboratory results as given in PubChem BioAssay AID590 (National Center for Advancing Translational Sciences (NCATS), 2007).
# Among all 59,000 compounds or so, about 6,500 (11%) were called active. This list was built around the results that the source calls inconclusive (neither active nor inactive); the mix of calls is not that of the screen. No stated cut-off is given here; in the data, active means max dye-equivalent concentration above about 10 nM; inconclusive means mostly about 1.1 nM to 9.6 nM; inactive means weaker than that.
# Assay: qHTS Assay for Spectroscopic Profiling in A350 Spectral Region
# Details: Compound autofluorescence, 340/450 nm, Alexa 350 dye-equivalents; active compounds read high
row,Compound,max dye-equivalent concentration
1,CN(Cc1ccccc1)Cc1c[nH]c2ccccc12,inconclusive: 1.1 nM
2,Cc1nc(N=Nc2ccc(C(=O)O)cc2)c(COP(=O)(O)O)c(C=O)c1O,inconclusive: 9 nM
3,O=C(COC(=O)CNC(=O)C1CCCCC1)Nc1ccc(Cl)cn1,inconclusive: 1.8 nM
4,CCOC(=O)Cn1cc(C(=O)c2ccco2)c2ccccc21,inconclusive: 1.9 nM
5,CCOC(=O)C1=C(N)N2C(=O)CSC2=C(C(=O)OC)C1,inconclusive: 8.4 nM
6,COc1ccc(-c2noc(N3CCC(C(=O)N4CCN(c5ccccn5)CC4)CC3)n2)cc1,inactive
7,c1nc(NC2CCNCC2)c2cc(-c3ccoc3)ccc2n1,active: 29 nM
8,COc1ccc(CNC(=O)c2cc3c(=O)n4ccccc4nc3n(CC3CCCO3)c2=N)cc1 (stereo not drawn),active: 290 nM
9,CC(C)CN1CC2(CCN(C(=O)c3cccc(F)c3)CC2)C1,inactive
10,O=C(c1cccn2c(=O)c3cc(Cl)ccc3nc12)N1CCN(Cc2ccc3c(c2)OCO3)CC1,active: 190 nM
11,COc1cc(NC(=O)C2CCCCN2)ccc1OCC(C)C (stereo not drawn),inconclusive: 1.6 nM
12,CCC(=Nc1ccc(Cc2ccncc2)cc1)c1c(O)n(C)c(=O)n(C)c1=O,inconclusive: 1.8 nM
13,Nc1nc(-c2ccc(Cl)cc2)cc(C(F)(F)F)n1,inconclusive: 4.2 nM
14,CC1(C)N=C(/C=N/O)C=[N+]1[O-],inconclusive: 1.7 nM
15,Cc1ccc(NS(=O)(=O)c2ccc(C)c(C(=O)N3CCN(C)CC3)c2)cc1,inconclusive: 4.2 nM
16,Cc1nnc(SCc2nc3ccccc3s2)n1-c1ccccc1,inconclusive: 1.1 nM
17,CCOCCCNC(=O)N[C@@H](Cc1ccccc1)C(=O)OC,inconclusive: 1.9 nM
18,CN(C)CCC=C1c2ccccc2C=Cc2ccccc21,inconclusive: 3.8 nM
19,CS(=O)(=O)N1CCC2(CCCN(C(=O)Nc3cccc(C#N)c3)C2)CC1,inactive
20,C[N+]1(C)CCC(=C(c2ccccc2)c2ccccc2)CC1,inactive
21,CC(Sc1nncs1)C(=O)NCc1ccc2c(c1)OCO2 (stereo not drawn),inactive
22,Cc1oc2c(CN3CCCC3)c(O)ccc2c(=O)c1Oc1ccccc1Br,active: 4300 nM
23,Cn1c(CNc2ccc(Cl)cc2)nnc1SCc1ccccc1,inconclusive: 1.3 nM
24,NS(=O)(=O)c1cc2c(cc1Cl)NCNS2(=O)=O,inconclusive: 9 nM

# A second format for some results above.
row | Compound | max dye-equivalent concentration
3 | O=C(COC(=O)CNC(=O)C1CCCCC1)Nc1ccc(Cl)cn1 | inconclusive: 1.8 nM
4 | CCOC(=O)Cn1cc(C(=O)c2ccco2)c2ccccc21 | inconclusive: 1.9 nM
5 | CCOC(=O)C1=C(N)N2C(=O)CSC2=C(C(=O)OC)C1 | inconclusive: 8.4 nM
6 | COc1ccc(-c2noc(N3CCC(C(=O)N4CCN(c5ccccn5)CC4)CC3)n2)cc1 | inactive

# (continued)

row,Compound,max dye-equivalent concentration
1,CCOc1ccc(C2C(C(=O)c3ccc(C)o3)=C(O)C(=O)N2CCN2CCOCC2)cc1OC (stereo not drawn),inconclusive: 1.4 nM
2,Cc1ccc(-c2nnc3c4ccccc4c(C)nn23)cc1NC(=O)CN1CCOCC1,inconclusive: 7.4 nM
3,CCn1c(C(=O)OC)cc2c1ccn2-c1ccc(F)cc1,inactive
4,Cc1cc(C)c(C#N)c(N2CCCC(C(N)=O)C2)n1 (stereo not drawn),active: 68 nM
5,CN1CCc2c(C#N)c(N3CCCCC3)nc(NCc3ccccc3)c2C1,inconclusive: 8.7 nM
6,O=C(c1ccc2c(c1)N(Cc1ccc(F)cc1)C(=O)CS2)N1CCOCC1,inactive
7,O=S(=O)(Nc1ccc(N2CCOCC2)nn1)c1ccccc1,inconclusive: 3.6 nM
8,CCCCC(=O)Nc1ccc2c(c1)nc(CCN1CCOCC1)n2C,inconclusive: 1.3 nM
9,CCNc1ncc2nc(-c3ccc(Cl)cc3)c(=O)n(C)c2n1,active: 250 nM
10,COc1ccc(CCNC(=O)CC2Nc3cc(C)c(C)cc3NC2=O)cc1OC (stereo not drawn),active: 51 nM
11,Cn1c(=NCC(O)COc2ccccc2)sc2ccccc21 (stereo not drawn),inconclusive: 1.6 nM
12,C=CCc1ccccc1OC[C@H](O)CNC(C)C,inactive
13,C=C(c1ccc(OCCO)cc1)c1ccc(OCCO)cc1,active: 800 nM
14,Cc1cc(C)n(CCCNC(=O)c2ccc(S(=O)(=O)NCc3ccco3)cc2)n1,inactive
15,CC(=O)/C(C#N)=C1\NC(=O)C(Cc2ccccc2)S1 (stereo not drawn),active: 23 nM
16,CCOC(=O)c1cc(-c2ccc(Cl)s2)nc2c1c(C)nn2C,active: 240 nM
17,O=C(CN1CC(=O)Oc2ccccc21)NCc1ccco1,inconclusive: 2.9 nM
18,CN(C)c1[nH]c(=O)c(C#N)c2c1CCN2Cc1ccccc1,inconclusive: 5.5 nM
19,CS(=O)(=O)Nc1ccccc1C(=O)NC1CC2CCC1C2 (stereo not drawn),inconclusive: 6.7 nM
20,CC(C)(C)NC(=O)COc1ccc(CNn2nnnc2N)cc1,inactive
21,COc1cc(C)nc(NCc2ccccc2)n1,inactive
22,COC(=O)C1=C(CSc2nncn2C)NC(=O)NC1c1cc(C)ccc1C (stereo not drawn),active: 7200 nM
23,Cc1ccc(-n2ncc3c(NCc4ccccc4)ncnc32)cc1,active: 32 nM
24,CN(C)[C@H]1C(=O)C(C(=O)NCN2CCCC2)=C(O)[C@]2(O)C(=O)C3=C(O)c4c(O)cccc4[C@@](C)(O)[C@H]3C[C@@H]12,inconclusive: 3.8 nM

row,Compound,max dye-equivalent concentration
1,CCOC(=O)CNC(=O)C(Cc1ccccc1)NS(=O)(=O)c1ccc2c(c1)CCC(=O)N2 (stereo not drawn),inconclusive: 1.6 nM
2,O=C(CCCn1c(=S)[nH]c2ccsc2c1=O)NCc1ccco1,inconclusive: 5.3 nM
3,COc1ccc(C(=O)OCCNC(=O)c2c(Cl)nc3ccccn23)cc1,inconclusive: 1.1 nM
4,Cc1nn(CCO)c2c1C(=O)CCC2,inconclusive: 1.2 nM
5,COC(=O)CNc1c(-c2ccccn2)nc2ccc(Br)cn12,inconclusive: 2.5 nM
6,O=C(O)c1ccc(Cl)c(S(=O)(=O)NCc2ccco2)c1,inconclusive: 1.8 nM
7,COC(=O)[C@H](C)NC(=O)Nc1ccc(Oc2ccccc2)cc1,inactive
8,Nc1cc(S(N)(=O)=O)ccc1SSc1ccc(S(N)(=O)=O)cc1N,inactive
9,Cc1cccc(CNc2ccnc(-c3ccc(N(C)C)cc3)n2)c1,inconclusive: 2.3 nM
10,CCC(=O)N(Cc1cc2cc(C)c(C)cc2[nH]c1=O)C1CCCCC1,inactive
11,CCn1c(CNC(=O)c2ccc(OC)c(OC)c2)nnc1SCC(=O)Nc1ccccc1,inconclusive: 2.5 nM
12,C=CCn1c(C(C)NC(=O)CC)nc2ccccc21 (stereo not drawn),inconclusive: 2.4 nM
13,COc1ccc(C2C(=O)N(CCc3ccccc3)CC(=O)N2C2CCCC2)cc1 (stereo not drawn),inconclusive: 1.2 nM
14,CCOc1ccc(N=NS(=O)(=O)O)cc1,inactive
15,COC(=O)c1c(C)[nH]c(C(C)=O)c1C,inconclusive: 2.3 nM
16,Cc1cc(NC(=O)Nc2ccc(F)c(Cl)c2)no1,inconclusive: 1.3 nM
17,N#Cc1c(-c2ccccc2)nc(N2CCCCCC2)[nH]c1=O,inconclusive: 6.7 nM
18,O=C(CCSc1ccc(F)cc1)Nc1ccc(-n2cnnn2)cc1,inactive
19,CS(=O)(=O)Nc1cccc(C(=O)CC2(O)C(=O)Nc3ccc(Br)cc32)c1 (stereo not drawn),inactive
21,CCOC(=O)Cc1csc(NC(=O)CCc2ccc(S(=O)(=O)N3CCOCC3)cc2)n1,inconclusive: 1.1 nM
22,O=C(Nc1cccc(-c2nc3ccccc3[nH]2)c1)c1ccco1,inconclusive: 1.4 nM
23,CC(C)COC(=O)C1[C@H]2C(=O)N(Cc3cccs3)C[C@]23C=C[C@H]1O3 (stereo partly drawn),inconclusive: 3.1 nM
24,O=C(CSc1nc2scc(-c3ccco3)c2c(=O)n1-c1ccccc1)NCC1CCCO1 (stereo not drawn),inconclusive: 2.6 nM

row,Compound,max dye-equivalent concentration
1,O=C(Nc1ccccc1C(F)(F)F)N1CCCCCC1,inactive
2,CC(=O)Oc1cc(C(C)C)c(OCCN(C)C)cc1C,inconclusive: 1.1 nM
3,O=C(NCCCn1ccnc1)Nc1cccc(Cl)c1,inactive
4,CCOC(=O)c1cnc(-n2nc(C)cc2C)nc1N(CC)CC,active: 15 nM
5,O=C(Nc1nc2ccccc2[nH]1)c1ccc(F)cc1,inconclusive: 1.8 nM
6,CCOC(=O)CC(=O)CSc1nc2ccc(C)cc2cc1C#N,inconclusive: 2 nM
7,CS(=O)(=O)N1CCC(C(=O)Nc2ccc(OCc3ccccc3)cc2)CC1,inactive
8,O=C(Nc1ccc(-c2nnc(-c3ccccc3)o2)cc1)c1ccc(Br)o1,active: 68 nM
9,COc1ccc(CNC(=O)C(C#N)c2nc3ccccc3nc2N2CCN(C)CC2)cc1 (stereo not drawn),inactive
10,O=c1oc2c(CN3CCCCCC3)c(O)ccc2cc1-c1nc2ccccc2[nH]1,active: 2800 nM
11,O=C(Nc1c(-c2ccccc2)nc2ccccn12)c1ccco1,inactive
12,CC(=O)N1CN(C2CCS(=O)(=O)C2)Cc2c1sc1c2CCCC1 (stereo not drawn),inactive
13,Cc1ccc(C)c(N(C(=O)CCC(=O)Nc2cc(C)on2)C(C(=O)NC2CCCC2)c2ccco2)c1 (stereo not drawn),inconclusive: 1.2 nM
14,COC(=O)C1=CN(C(C)C)C=C(C(=O)OC)C1c1cc2c(cc1Br)OCO2,inconclusive: 2.7 nM
15,O=C(O)c1ccc(OC(F)(F)C(F)C(F)(F)F)cc1 (stereo not drawn),active: 320 nM
16,CCCCCn1c(=NC(C)=O)c(C#N)cc2c(=O)n3cccc(C)c3nc21,active: 550 nM
17,CCOC(=O)c1cccc(NC(=O)CN(C)S(=O)(=O)c2cnc[nH]2)c1,inconclusive: 4.1 nM
18,CCCNC(=O)c1c(C)cc(=O)oc1C,inconclusive: 1.2 nM
19,Cc1nc2scc(-c3ccccc3)c2c(=O)n1/N=C/c1ccco1,inactive
20,Cc1c(-c2ccccc2)[n+](=O)c(-c2ccco2)c(C)n1[O-],inconclusive: 4.8 nM
21,CCOc1cccc2cc(-c3nnc(NCc4ccco4)s3)c(=O)oc12,inconclusive: 7.8 nM
